These are yes or no findings as the source states them, for the method shown. In cells and extracts the contact can be indirect. Some binding calls cover weakened binding; strength is not graded here. Tags and fused reporters may be left off the sequences shown.
Molecular target: T1, eGFP-tagged ATP8B1 (UniProt O43520)
T1 sequence: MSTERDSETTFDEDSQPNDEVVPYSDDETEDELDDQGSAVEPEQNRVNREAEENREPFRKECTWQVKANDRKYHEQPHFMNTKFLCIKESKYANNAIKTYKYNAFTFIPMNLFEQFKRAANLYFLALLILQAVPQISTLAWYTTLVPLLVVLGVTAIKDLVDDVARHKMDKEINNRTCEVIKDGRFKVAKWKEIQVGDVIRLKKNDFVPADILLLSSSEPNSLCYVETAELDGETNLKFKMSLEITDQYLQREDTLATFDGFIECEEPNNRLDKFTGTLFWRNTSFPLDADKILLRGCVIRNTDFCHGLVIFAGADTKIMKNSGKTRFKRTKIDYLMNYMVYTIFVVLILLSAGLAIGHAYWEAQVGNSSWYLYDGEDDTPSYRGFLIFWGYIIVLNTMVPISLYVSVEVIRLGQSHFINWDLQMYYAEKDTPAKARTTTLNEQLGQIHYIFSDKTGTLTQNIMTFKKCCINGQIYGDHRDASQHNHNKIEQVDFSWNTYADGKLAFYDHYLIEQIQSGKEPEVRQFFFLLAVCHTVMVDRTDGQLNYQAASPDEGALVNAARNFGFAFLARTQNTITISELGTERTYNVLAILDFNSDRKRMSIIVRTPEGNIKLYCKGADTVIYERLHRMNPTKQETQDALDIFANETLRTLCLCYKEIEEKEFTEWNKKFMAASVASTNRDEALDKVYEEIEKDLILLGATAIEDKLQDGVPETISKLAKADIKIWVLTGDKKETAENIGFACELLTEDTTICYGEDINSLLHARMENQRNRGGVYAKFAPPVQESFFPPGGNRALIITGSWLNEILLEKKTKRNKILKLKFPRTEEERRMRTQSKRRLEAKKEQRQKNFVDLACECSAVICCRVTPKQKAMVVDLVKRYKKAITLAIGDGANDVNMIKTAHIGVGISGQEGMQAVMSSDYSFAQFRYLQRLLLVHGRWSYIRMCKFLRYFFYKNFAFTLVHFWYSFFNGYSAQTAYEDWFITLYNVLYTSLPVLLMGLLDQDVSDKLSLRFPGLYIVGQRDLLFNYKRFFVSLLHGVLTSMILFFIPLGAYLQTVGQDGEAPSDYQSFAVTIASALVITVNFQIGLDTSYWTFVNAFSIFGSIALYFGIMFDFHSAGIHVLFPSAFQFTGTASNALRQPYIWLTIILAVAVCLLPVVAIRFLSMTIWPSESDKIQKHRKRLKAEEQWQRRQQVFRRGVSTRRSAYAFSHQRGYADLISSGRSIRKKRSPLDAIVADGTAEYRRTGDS
Test: co-IP; anti-GFP immunoprecipitation of ATP8B1-eGFP from Caco2-BBE cells over-expressing ATP8B1-eGFP; immunoblot of the eluate

Amino acid sequences for entries named in this document (tags omitted).
UniProt O14493: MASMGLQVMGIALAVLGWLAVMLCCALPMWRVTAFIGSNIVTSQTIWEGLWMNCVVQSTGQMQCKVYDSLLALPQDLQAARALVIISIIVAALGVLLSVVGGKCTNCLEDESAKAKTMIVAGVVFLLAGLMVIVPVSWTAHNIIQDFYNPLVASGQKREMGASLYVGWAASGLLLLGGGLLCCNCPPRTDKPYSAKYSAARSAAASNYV
UniProt P04406: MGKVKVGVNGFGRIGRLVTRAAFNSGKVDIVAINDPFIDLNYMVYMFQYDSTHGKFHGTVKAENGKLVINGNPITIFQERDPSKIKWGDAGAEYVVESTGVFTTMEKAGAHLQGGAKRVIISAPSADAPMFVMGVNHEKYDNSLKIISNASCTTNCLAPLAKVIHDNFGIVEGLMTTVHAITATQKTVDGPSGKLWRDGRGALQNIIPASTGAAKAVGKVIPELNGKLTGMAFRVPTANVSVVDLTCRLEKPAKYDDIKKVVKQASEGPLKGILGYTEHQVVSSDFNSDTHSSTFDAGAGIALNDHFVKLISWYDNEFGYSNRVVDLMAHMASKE

binding | Substance
binds | Claudin-4 (from UniProt O14493 1-209)
no binding | GAPDH (from UniProt P04406 1-335)

— publication PMC11302967
